Results are given in words; binding and its absence hold for the method and conditions named. In cells and extracts the contact can be indirect. A yes stands for co-enrichment or nearness to the bait. Other partners may have been found. For some assays here: A no says only that the protein was not detected with the bait. For some assays here: Tags and fused reporters may be left off the sequences shown.
B1: ULK1 (protein, UniProt O70405 1-1051)
chain: MEPGRGGVETVGKFEFSRKDLIGHGAFAVVFKGRHREKHDLEVAVKCINKKNLAKSQTLLGKEIKILKELKHENIVALYDFQEMANSVYLVMEYCNGGDLADYLHTMRTLSEDTVRLFLQQIAGAMRLLHSKGIIHRDLKPQNILLSNPGGRRANPSNIRVKIADFGFARYLQSNMMAATLCGSPMYMAPEVIMSQHYDGKADLWSIGTIVYQCLTGKAPFQASSPQDLRLFYEKNKTLVPAIPRETSAPLRQLLLALLQRNHKDRMDFDEFFHHPFLDASTPIKKSPPVPVPSYPSSGSGSSSSSSSASHLASPPSLGEMPQLQKTLTSPADAAGFLQGSRDSGGSSKDSCDTDDFVMVPAQFPGDLVAEAASAKPPPDSLLCSGSSLVASAGLESHGRTPSPSPTCSSSPSPSGRPGPFSSNRYGASVPIPVPTQVHNYQRIEQNLQSPTQQQTARSSAIRRSGSTTPLGFGRASPSPPSHTDGAMLARKLSLGGGRPYTPSPQVGTIPERPSWSRVPSPQGADVRVGRSPRPGSSVPEHSPRTTGLGCRLHSAPNLSDFHVVRPKLPKPPTDPLGATFSPPQTSAPQPCPGLQSCRPLRGSPKLPDFLQRSPLPPILGSPTKAGPSFDFPKTPSSQNLLTLLARQGVVMTPPRNRTLPDLSEASPFHGQQLGSGLRPAEDTRGPFGRSFSTSRITDLLLKAAFGTQASDSGSTDSLQEKPMEIAPSAGFGGTLHPGARGGGASSPAPVVFTVGSPPSGATPPQSTRTRMFSVGSSSSLGSTGSSSARHLVPGACGEAPELSAPGHCCSLADPLAANLEGAVTFEAPDLPEETLMEQEHTETLHSLRFTLAFAQQVLEIAALKGSASEAAGGPEYQLQESVVADQISQLSREWGFAEQLVLYLKVAELLSSGLQTAIDQIRAGKLCLSSTVKQVVRRLNELYKASVVSCQGLSLRLQRFFLDKQRLLDGIHGVTAERLILSHAVQMVQSAALDEMFQHREGCVPRYHKALLLLEGLQHTLTDQADIENIAKCKLCIERRLSALLSGVYA
B2: PICALM (protein, UniProt Q7M6Y3 1-660)
chain: MSGQSLTDRITAAQHSVTGSAVSKTVCKATTHEIMGPKKKHLDYLIQCTNEMNVNIPQLADSLFERTTNSSWVVVFKSLITTHHLMVYGNERFIQYLASRNTLFNLSNFLDKSGLQGYDMSTFIRRYSRYLNEKAVSYRQVAFDFTKVKRGADGVMRTMNTEKLLKTVPIIQNQMDALLDFNVNSNELTNGVINAAFMLLFKDAIRLFAAYNEGIINLLEKYFDMKKNQCKEGLDIYKKFLTRMTRISEFLKVAEQVGIDRGDIPDLSQAPSSLLDALEQHLASLEGKKIKDSTAASRATTLSNAVSSLASTGLSLTKVDEREKQAALEEEQARLKALKEQRLKELAKKPHTSLTTAASPVSTSAGGIMTAPAIDIFSTPSSSNSTSKLPNDLLDLQQPTFHPSVHAMSAAPQGASTWGDPFSATLDAVEDAIPSLNPFLTKSSGDVHLPIASDVSTFTTRTPTHEMFVGFSPSPVAQPHSSAGLNVDFESVFGNKSTNVAVDSGGFDELGGLLKPTVASQNQSLPVAKLPPNKLVSDDLDSSLANLVGNLGIGNGTTKNDVSWSQPGEKKLTGGSNWQPKVAPTTAWSAATMNGMHFPQYAPPVMAYPATTPTGMIGYGIPPQMGSVPVMTQPTLIYSQPVMRPPNPFGPVSGAQIQFM

Chains of the proteins cited; added tags and fusions are not shown.
UniProt Q8CHC4: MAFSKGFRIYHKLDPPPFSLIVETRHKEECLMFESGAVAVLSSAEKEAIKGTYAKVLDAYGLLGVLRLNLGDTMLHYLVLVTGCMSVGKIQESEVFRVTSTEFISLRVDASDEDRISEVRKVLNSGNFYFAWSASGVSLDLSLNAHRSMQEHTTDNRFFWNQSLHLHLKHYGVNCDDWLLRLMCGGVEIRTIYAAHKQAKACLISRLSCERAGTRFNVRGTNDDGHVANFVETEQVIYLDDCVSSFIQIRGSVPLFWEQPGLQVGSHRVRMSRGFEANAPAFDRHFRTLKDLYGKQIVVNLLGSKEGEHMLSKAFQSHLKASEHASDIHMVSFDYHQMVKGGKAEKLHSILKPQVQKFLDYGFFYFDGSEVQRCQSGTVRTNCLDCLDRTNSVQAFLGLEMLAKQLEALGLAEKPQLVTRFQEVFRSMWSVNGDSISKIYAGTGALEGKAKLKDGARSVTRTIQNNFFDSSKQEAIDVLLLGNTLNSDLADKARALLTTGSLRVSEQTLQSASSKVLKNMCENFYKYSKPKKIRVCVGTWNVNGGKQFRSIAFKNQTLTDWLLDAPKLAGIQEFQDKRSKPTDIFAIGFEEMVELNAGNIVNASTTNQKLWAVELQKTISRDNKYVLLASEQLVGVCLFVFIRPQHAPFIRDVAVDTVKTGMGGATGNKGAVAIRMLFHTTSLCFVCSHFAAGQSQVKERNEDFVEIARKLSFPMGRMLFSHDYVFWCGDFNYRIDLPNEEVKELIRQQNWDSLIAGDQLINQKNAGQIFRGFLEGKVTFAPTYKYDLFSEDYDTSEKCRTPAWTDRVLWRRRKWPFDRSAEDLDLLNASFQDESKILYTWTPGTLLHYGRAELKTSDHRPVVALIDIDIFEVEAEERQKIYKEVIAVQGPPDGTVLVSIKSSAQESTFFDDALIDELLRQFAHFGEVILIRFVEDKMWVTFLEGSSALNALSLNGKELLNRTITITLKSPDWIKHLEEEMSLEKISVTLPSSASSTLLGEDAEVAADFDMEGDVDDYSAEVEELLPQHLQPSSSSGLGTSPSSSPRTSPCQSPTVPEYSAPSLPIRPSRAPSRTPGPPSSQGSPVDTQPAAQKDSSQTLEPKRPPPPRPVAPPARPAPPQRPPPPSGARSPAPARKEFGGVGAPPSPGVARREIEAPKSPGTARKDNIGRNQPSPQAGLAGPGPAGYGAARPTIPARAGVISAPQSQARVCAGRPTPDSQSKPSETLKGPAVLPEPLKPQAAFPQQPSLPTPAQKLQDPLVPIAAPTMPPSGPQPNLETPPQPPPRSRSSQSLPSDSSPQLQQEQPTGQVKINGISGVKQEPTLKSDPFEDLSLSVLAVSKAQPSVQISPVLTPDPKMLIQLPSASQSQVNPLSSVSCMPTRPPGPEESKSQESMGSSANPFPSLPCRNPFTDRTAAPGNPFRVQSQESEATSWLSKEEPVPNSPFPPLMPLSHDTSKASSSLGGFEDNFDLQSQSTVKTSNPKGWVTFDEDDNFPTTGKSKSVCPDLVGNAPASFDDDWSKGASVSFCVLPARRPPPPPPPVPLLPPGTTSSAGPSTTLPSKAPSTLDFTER
UniProt Q9ESK9: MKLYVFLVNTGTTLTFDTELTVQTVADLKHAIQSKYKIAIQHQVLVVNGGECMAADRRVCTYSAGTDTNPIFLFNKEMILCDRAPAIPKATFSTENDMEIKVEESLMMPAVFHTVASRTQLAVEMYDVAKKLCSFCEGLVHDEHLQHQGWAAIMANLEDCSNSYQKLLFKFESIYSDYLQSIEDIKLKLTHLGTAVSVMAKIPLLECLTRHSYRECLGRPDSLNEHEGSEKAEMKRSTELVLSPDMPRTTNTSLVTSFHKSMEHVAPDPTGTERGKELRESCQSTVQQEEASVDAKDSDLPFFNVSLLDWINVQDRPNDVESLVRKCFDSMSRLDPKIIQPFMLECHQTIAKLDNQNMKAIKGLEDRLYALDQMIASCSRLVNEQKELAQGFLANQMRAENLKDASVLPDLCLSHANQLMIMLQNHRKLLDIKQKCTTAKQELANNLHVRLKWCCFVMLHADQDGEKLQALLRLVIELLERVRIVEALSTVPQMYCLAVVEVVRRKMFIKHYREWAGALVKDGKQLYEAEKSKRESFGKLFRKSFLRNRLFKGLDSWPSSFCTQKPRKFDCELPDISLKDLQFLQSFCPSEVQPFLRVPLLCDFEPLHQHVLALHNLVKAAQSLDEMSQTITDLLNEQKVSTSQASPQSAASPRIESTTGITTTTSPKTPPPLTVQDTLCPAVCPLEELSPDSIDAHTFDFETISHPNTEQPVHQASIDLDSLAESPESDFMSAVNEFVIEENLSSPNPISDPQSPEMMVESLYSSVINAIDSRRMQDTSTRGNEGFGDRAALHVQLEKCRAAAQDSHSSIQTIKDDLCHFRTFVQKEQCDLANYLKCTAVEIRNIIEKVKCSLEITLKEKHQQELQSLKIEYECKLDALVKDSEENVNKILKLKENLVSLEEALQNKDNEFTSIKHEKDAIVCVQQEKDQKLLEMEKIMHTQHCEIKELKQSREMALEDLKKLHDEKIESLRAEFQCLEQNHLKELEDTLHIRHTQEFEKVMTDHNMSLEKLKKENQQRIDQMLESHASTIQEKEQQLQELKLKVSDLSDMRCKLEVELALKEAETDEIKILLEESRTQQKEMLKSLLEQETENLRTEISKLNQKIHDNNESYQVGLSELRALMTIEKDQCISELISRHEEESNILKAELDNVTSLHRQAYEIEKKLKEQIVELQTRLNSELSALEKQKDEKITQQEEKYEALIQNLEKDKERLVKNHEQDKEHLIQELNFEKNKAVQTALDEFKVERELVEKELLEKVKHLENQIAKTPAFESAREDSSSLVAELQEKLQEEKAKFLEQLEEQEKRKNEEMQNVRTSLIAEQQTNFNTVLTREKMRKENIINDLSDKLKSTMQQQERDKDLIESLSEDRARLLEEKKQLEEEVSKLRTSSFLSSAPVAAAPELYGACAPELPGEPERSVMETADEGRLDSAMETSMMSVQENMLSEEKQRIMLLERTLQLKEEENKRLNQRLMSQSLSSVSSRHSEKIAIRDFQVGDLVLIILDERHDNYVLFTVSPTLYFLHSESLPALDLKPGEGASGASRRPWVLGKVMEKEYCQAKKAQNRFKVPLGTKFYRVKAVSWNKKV
UniProt Q9CPX6: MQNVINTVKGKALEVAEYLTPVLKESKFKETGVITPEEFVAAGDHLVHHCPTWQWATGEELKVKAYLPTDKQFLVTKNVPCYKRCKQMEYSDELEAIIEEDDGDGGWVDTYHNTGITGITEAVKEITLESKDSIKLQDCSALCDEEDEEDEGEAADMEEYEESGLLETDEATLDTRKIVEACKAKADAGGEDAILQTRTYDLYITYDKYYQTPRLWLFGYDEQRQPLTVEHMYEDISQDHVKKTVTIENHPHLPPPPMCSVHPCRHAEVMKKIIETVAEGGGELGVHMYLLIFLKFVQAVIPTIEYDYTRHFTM
UniProt Q6P4T0: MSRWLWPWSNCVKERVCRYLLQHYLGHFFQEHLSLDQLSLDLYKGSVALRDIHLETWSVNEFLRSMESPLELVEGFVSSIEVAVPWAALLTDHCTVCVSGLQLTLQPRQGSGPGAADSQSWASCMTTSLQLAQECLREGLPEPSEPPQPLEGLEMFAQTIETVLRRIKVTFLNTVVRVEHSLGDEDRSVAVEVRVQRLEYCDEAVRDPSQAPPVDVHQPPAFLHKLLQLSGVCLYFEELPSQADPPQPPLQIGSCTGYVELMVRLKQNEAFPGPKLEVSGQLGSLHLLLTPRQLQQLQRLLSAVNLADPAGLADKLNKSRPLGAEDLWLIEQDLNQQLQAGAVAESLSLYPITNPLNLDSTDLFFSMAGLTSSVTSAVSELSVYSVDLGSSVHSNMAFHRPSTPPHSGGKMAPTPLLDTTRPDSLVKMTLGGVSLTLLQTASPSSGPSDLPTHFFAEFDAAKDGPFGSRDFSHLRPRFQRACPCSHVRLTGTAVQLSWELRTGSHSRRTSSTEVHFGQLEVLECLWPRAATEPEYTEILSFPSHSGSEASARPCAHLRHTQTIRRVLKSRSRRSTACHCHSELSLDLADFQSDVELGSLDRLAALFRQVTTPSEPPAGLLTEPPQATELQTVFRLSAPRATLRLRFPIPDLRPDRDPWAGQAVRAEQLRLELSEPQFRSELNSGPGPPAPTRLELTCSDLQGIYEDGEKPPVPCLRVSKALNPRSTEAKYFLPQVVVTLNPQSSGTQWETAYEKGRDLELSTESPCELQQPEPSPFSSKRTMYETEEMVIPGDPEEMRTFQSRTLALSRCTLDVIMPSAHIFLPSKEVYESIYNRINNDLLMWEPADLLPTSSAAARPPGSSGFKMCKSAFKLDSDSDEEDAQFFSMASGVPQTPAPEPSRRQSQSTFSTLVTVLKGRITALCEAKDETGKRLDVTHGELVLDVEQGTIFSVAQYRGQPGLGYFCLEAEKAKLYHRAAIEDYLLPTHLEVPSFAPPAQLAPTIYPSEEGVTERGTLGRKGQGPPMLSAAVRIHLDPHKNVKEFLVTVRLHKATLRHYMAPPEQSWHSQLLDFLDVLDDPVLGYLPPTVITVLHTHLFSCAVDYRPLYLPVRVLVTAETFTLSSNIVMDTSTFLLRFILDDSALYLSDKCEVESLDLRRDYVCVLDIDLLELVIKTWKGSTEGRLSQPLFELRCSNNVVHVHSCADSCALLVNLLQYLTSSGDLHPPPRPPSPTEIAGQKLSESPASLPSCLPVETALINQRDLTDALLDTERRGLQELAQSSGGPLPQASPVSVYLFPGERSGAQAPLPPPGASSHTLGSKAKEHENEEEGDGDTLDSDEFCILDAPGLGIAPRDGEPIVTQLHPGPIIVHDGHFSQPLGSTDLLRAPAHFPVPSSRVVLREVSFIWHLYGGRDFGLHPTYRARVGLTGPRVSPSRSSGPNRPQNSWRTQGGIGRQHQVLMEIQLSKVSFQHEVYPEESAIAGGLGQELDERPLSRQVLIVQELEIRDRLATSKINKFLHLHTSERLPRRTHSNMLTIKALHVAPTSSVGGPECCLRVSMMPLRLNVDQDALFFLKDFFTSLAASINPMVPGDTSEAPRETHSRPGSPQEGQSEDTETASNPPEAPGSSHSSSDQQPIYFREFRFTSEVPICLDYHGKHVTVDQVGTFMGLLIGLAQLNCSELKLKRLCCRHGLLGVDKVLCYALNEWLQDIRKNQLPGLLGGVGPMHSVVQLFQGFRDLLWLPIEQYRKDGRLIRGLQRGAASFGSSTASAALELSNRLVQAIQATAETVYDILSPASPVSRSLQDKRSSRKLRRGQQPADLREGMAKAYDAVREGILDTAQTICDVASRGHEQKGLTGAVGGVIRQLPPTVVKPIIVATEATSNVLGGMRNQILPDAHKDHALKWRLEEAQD
UniProt Q91VH2: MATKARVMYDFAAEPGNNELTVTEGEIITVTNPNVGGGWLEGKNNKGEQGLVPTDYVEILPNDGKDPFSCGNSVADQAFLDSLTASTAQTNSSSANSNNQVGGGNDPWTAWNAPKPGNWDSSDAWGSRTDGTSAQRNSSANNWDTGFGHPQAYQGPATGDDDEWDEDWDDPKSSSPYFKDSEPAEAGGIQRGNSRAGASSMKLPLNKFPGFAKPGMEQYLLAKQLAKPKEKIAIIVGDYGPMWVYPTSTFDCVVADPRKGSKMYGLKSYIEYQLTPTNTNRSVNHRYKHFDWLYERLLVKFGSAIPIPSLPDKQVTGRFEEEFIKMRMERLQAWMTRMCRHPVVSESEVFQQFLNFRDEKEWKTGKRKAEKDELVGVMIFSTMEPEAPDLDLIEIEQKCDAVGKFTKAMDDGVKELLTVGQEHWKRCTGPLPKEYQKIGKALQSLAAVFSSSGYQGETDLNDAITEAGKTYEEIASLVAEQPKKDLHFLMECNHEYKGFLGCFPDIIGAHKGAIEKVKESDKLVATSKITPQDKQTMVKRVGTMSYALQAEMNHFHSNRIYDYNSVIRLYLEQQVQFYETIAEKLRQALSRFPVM

Columns and labels:
[1] = target: wild-type GFP-ATG5 (mouse) (UniProt Q99J83); assay: affinity purification with mass spectrometry
K130R GFP-ATG5 (mouse) = target: T1, K130R GFP-ATG5 (mouse) (UniProt Q99J83); assay: affinity purification with mass spectrometry
T1 sequence: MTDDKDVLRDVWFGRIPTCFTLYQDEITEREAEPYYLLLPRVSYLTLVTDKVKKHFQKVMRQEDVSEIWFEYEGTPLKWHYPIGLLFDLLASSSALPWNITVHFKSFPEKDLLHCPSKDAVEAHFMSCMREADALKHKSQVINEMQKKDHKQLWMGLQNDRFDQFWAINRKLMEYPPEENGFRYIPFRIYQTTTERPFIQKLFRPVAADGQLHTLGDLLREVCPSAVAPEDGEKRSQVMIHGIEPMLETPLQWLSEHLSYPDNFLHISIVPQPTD

Molecule	binding [1]	binding (K130R GFP-ATG5 (mouse))
SYNJ1 (from UniProt Q8CHC4 1-1574)	binds	–
RBCC1 (from UniProt Q9ESK9 1-1588)	binds	no binding
ATG3 (from UniProt Q9CPX6 1-314)	binds	–
insulin-like growth factor 2 receptor (from UniProt Q07113 36-2483)	binds	–
AP2-asssociated kinase 1 (from UniProt Q3UHJ0 1-959)	binds	no binding
ATG2A (from UniProt Q6P4T0 1-1914)	–	binds
clathrin adaptor subunit AP1 G1 (from UniProt P22892 1-822)	binds	–
sorting nexin 9 (from UniProt Q91VH2 1-595)	–	no binding
dynamin binding protein (from UniProt Q6TXD4 1-1580)	binds	no binding
B1	–	binds
B2	binds	–
